## Percent effect of library compounds

Sequences of proteins named here, by UniProt entry; tags and fusion partners are left off. Residues count along the entry.
UniProt P9WPC5, whole entry: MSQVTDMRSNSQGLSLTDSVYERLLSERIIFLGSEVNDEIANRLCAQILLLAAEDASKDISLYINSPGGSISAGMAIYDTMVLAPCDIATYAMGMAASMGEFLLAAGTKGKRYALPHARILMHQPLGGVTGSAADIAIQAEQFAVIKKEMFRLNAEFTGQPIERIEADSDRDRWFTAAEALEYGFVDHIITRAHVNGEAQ
UniProt P9WPC3, whole entry partner: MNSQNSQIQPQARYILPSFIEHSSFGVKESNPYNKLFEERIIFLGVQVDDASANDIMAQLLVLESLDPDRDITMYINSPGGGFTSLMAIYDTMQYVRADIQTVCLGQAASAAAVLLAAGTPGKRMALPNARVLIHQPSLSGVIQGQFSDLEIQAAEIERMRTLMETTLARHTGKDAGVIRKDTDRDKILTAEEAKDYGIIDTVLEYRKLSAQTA
UniProt P9WNZ1, whole entry: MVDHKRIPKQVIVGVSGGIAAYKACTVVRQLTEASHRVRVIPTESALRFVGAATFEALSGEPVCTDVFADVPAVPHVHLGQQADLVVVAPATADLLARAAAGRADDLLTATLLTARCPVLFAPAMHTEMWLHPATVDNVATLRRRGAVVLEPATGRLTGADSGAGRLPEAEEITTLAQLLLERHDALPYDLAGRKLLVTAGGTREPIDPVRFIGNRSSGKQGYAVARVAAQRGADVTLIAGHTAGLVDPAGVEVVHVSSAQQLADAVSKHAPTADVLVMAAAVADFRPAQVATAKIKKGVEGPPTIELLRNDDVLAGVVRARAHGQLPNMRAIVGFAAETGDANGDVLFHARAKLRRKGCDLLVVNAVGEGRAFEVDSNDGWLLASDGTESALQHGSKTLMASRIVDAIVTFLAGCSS
UniProt Q8IDJ8, 1-583: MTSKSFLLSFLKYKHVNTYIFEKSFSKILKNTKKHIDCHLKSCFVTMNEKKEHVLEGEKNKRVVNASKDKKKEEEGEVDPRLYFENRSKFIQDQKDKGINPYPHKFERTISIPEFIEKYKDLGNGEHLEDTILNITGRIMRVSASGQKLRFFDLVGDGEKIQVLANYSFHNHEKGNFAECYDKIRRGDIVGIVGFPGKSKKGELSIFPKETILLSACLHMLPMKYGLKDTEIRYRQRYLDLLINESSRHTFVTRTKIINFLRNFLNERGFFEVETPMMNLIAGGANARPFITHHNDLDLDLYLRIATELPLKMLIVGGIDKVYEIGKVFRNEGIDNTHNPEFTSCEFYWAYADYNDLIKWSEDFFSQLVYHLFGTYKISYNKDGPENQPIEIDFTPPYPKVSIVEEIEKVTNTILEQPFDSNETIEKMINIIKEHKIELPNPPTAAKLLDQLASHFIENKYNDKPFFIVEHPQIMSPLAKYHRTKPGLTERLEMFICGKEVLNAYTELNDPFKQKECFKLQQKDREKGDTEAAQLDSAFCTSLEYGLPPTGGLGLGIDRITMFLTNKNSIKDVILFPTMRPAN

The filed quantity is “Percent Effect” (%).
The controls that fix the scale are not given in the record; negative values are as filed.
Compounds were drawn at random from those tested, without regard to their results.
Two or more numbers in one place are separate tests of the same structure; such repeats can differ widely.
A dash means the value is not listed here; it may have been measured.

ClpP1P2: 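Protease assay of ClpP1P2, read by the AMC dye that it sets free. Target: ClpP1P2, Mycobacterium tuberculosis (UniProt P9WPC5 and UniProt P9WPC3). Concentration: 50 µM. Higher reads as stronger inhibition, judged from the few compounds that gave an IC50. Most other retested compounds had strongly negative values. About 69,000 compounds were tested under these conditions; 0.015% (about 10) showed 50% or more at least once.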
CoaBC: 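Enzyme assay of CoaBC with a phosphate dye (Biomol Green) read at 650 nm. Target: Coenzyme A biosynthesis protein CoaBC, Mycobacterium tuberculosis (UniProt P9WNZ1). Concentration: 30 µM. Direction is inferred from only a few compounds that gave an IC50; most scored high, so higher reads as stronger inhibition. Most strong results did not repeat in a second test. About 67,000 compounds were tested under these conditions; 0.06% (about 40) showed 50% or more at least once.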
PfKRS1: 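Lysine-tRNA ligase, Plasmodium falciparum 3D7 (UniProt Q8IDJ8). Enzyme assay of the cytosolic lysyl-tRNA synthetase in 384-well plates, read by luminescence. Compounds at 30 µM. Higher reads as stronger inhibition, judged from the few compounds that gave an IC50. Of about 69,000 compounds tested this way, about 49 (0.071%) reached 50% or more in at least one test.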
Leishmania in macrophages: 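Cell assay of Leishmania donovani living inside macrophages; the read-out is not stated. Compounds at 30 µM. Direction is inferred from retests: higher values go with stronger inhibition. Of about 69,000 compounds tested this way, about 1,000 (1.5%) reached 50% or more in at least one test.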

| # | SMILES | ClpP1P2 | CoaBC | PfKRS1 | Leishmania in macrophages |
|---|---|---|---|---|---|
| 1 | `Cc1cnn(-c2ccc(C(=O)N3CCN(C)CC3C)cc2)c1` (stereo not drawn) | -5.477% | -5.405% | 0.3935% | 6.894% |
| 2 | `CCn1c(CN2CCCC2)nnc1C1CCN(Cc2cccnc2)CC1` | -10.67% | 1.568% | -2.145% | -34.31% |
| 3 | `CCC(NC(=O)CCCN1CCCCC1)c1cn2cccnc2n1` (stereo not drawn) | -4.437% | -3.074% | 5.404% | 2.49% |
| 4 | `NC(=O)c1nc(-c2ccc(Cl)cc2Cl)oc1N` | -13.14% | -4.578% | 0.389% | -28.52% |
| 5 | `Cc1noc(C)c1-c1nc(N(C)C)ncc1-c1cnccn1` | -2.112% | 0% | 1.928% | 0.836% & -4.163% |
| 6 | `Cc1cccc(CN2CCc3[nH]nc(C(=O)N4CCNC(=O)C4)c3C2)n1` | -1.003% | - | 13.2% | - |
| 7 | `CCCc1cc(N2CCC(NCC3(O)CCCCC3)CC2)nc(C)n1` | -24.72% | 6.335% | 3.176% | 22.38% |
| 8 | `Cc1noc(C(C)C)c1C(=O)N1CCC(n2cccn2)CC1` | 10.51% | -0.8917% | 0.492% | 7.504% |
| 9 | `O=C1CC(c2cccs2)Cc2[nH]c(=O)ccc21` (stereo not drawn) | 5.951% | 1.927% | 9.441% | 4.725% |
| 10 | `COCC(=O)N1CCC2(CC1)CC(OC)c1ccc(F)cc12` (stereo not drawn) | -4.641% | - | -3.097% | 2.524% |
| 11 | `Cc1cccc(CN2CCO[C@H]3[C@@H](OCc4ccncc4)CC[C@@H]32)n1` | -1.228% | -1.235% | 1.462% | - |
| 12 | `CC(C)c1nnc2ccc(N3CCC(C(N)=O)CC3)nn12` | 5.4% | -4.711% | 0.05831% | -19.65% |
| 13 | `Cc1ccc(F)cc1S(=O)(=O)NCc1cccc(C(=O)N2CCCC2)c1` | -15.49% | -1.877% | -0.8709% | 15.77% |
| 14 | `CN1CCCC(c2ccc(N3CCOCC3)cn2)C1` (stereo not drawn) | -20.37% | 2.74% | -0.1554% | - |
| 15 | `O=C(CO)N1CC2(CCN(c3ccccc3)C2)C1` | -5.86% | 6.352% | 4.08% | 3.224% |
| 16 | `CCOc1ncccc1CNC(=O)Nc1cc(C)nn1C` | 2.218% | 6.997% | 5.348% | 6.069% |
| 17 | `O=S(=O)(c1cccs1)N1CC[C@H](O)[C@@H]1Cc1ccncc1` | 1.934% | 7.712% | 10.26% | - |
| 18 | `CCS(=O)(=O)N1CCC2(CC1)CC(Oc1ccccn1)CO2.O=C(O)C(F)(F)F` (stereo not drawn) | - | - | - | -8.598% |
| 19 | `CC(C)(C)OC(=O)N1CCn2c(nnc2C2CCCNC2)C1` (stereo not drawn) | 22.35% | -0.7884% | -1.181% | 12.83% |
| 20 | `CN(Cc1cn2c(n1)CN(C1CCOCC1)CC2)Cc1ccco1.O=C(O)C(F)(F)F.O=C(O)C(F)(F)F` | - | - | - | 24.28% |
| 21 | `Cn1cc(C(=O)N(Cc2ccco2)Cc2cccs2)ccc1=O` | -0.5017% | -0.369% | 6.688% | 12.37% |
| 22 | `O=C(O)C(F)(F)F.O=S(=O)(c1cccs1)N1Cc2nc(CN3CCCCC3)oc2C1` | - | - | - | 27% |
| 23 | `CCc1c(O)nc(SC(C)CC)n(-c2ccccc2)c1=O` (stereo not drawn) | -3.645% | 0.216% | 5.192% | 13.19% |
| 24 | `Cc1ccn(-c2ccc(N3CCCN(Cc4ccccc4)CC3)nn2)n1` | -17.48% | 7.595% | 5.56% | -2.945% |
| 25 | `O=C(NC1CCC1)[C@H]1C[C@@H]2[C@@H](C1)OCCN2CC1CC1` | -5.284% | -0.2114% | 3.051% | - |
| 26 | `CC(=O)N1CCC2(CC1)COCCN2Cc1ccc(F)cc1.O=C(O)C(F)(F)F` | - | - | - | 12.49% |
| 27 | `COc1cccc(CN2CCCCC2c2n[nH]cc2-c2cc(C)no2)c1.Cl` (stereo not drawn) | - | - | - | 21.45% |
| 28 | `COc1ccc(S(=O)(=O)N2CCCC3(CCCN3S(C)(=O)=O)C2)cc1` (stereo not drawn) | 12.29% | -1.762% | -4.079% | 0.03672% |
| 29 | `CCc1cccc2cc(CN)c(=O)[nH]c12` | -4.876% | 3.828% | 0.7118% | 14.27% |
| 30 | `O=C(O)C(F)(F)F.[H][C@@]12C[C@H](C(=O)N(C)C)[C@@]([H])(CN(CCc3ccccc3)C1)O2` | - | - | - | 20.02% |
| 31 | `CN(C(=O)Cc1ccc2c(c1)OCCO2)C1CCCCC1` | -13.27% | 9.474% | 2.549% | -1.934% |
| 32 | `CCN(C)c1ncnc2c1CCN(C(=O)c1ccsc1)CC2` | -14.15% | 1.794% | 7.564% | - |
| 33 | `O=c1[nH]c(NC2CCCC2)nc2nccc(-c3ccsc3)c12` | -14.48% | 0.5115% | -0.09626% | -21.89% |
| 34 | `[H][C@@]12CCN(C(C)=O)C[C@@]1([H])[C@H](C(=O)NCc1ccco1)CCO2` | - | - | - | 0.1961% |
| 35 | `CCOCc1ccccc1NC(=O)NCC(c1cnn(C)c1)N(C)C` (stereo not drawn) | 7.874% | 5.242% | 5.054% | 9.623% |
| 36 | `Cc1cccn2c(=O)cc(CSCC(=O)Nc3nnc(C(C)C)s3)nc12` | -5.269% | 0.6588% | -1.343% | 24.62% |
| 37 | `c1cc(NCc2ccncc2)nc(C2CCCN2)c1` (stereo not drawn) | -44.18% | -6.621% | 0.006754% | - |
| 38 | `CCN(Cc1nccn1C)C1CCN(c2ccccc2)C1=O` (stereo not drawn) | -0.4206% | 1.656% | 3.735% | 24.1% |
| 39 | `CC(NS(C)(=O)=O)c1nc(-c2ccc(Br)cc2)no1` (stereo not drawn) | -9.56% | -1.339% | 5.434% | 0.3723% |
| 40 | `O=C(C[C@@H]1COC[C@H]2CN(Cc3cccnc3)C[C@@H]12)N1CCOCC1` | 15.91% | -6.767% | -0.9807% | - |
| 41 | `CC(C)[C@H]1CN(c2ccnc(N)n2)C[C@@H]1NC(=O)C1(C#N)CCOCC1` | -14.67% | 1.699% | -5.939% | -10.68% |
| 42 | `O=C(c1cn(-c2ccc(F)cc2)nn1)N1CCCC(n2cccn2)C1` (stereo not drawn) | -7.442% | -10.99% | -0.5359% | 27.27% |
| 43 | `c1nc(N2CCCC2)cnc1C1CCNCC1` | -11.64% | -7.264% | 1.543% | -30.52% |

Some entries from above, unchanged:

{"smiles": "O=C(C[C@@H]1COC[C@H]2CN(Cc3cccnc3)C[C@@H]12)N1CCOCC1", "ClpP1P2": 15.91, "CoaBC": -6.767, "PfKRS1": -0.9807}
{"smiles": "CCOCc1ccccc1NC(=O)NCC(c1cnn(C)c1)N(C)C", "stereo": "stereo not drawn", "ClpP1P2": 7.874, "CoaBC": 5.242, "PfKRS1": 5.054, "Leishmania in macrophages": 9.623}
{"smiles": "Cc1noc(C(C)C)c1C(=O)N1CCC(n2cccn2)CC1", "ClpP1P2": 10.51, "CoaBC": -0.8917, "PfKRS1": 0.492, "Leishmania in macrophages": 7.504}
{"smiles": "CCc1cccc2cc(CN)c(=O)[nH]c12", "ClpP1P2": -4.876, "CoaBC": 3.828, "PfKRS1": 0.7118, "Leishmania in macrophages": 14.27}
{"smiles": "COc1cccc(CN2CCCCC2c2n[nH]cc2-c2cc(C)no2)c1.Cl", "stereo": "stereo not drawn", "Leishmania in macrophages": 21.45}

The values are deposited in ChEMBL (CHEMBL3988442, “University of Dundee, Small-Polar-MMV Screening Library” (2021)).